Assay results reported in patent US9428564B2, “Muscle function enhancing peptide” (Universitatsklinikum Heidelberg, priority 2009, dated 2016).
“Also recorded” adds a separate entry of the source. Not every detail of the peptide structures is certain; ends, links or a residue may be inferred. Where a SMILES comes first, the peptide text is derived from it.

Assays:
[1] = tested on: permeabilized cardiomyocytes; experiment: Ca2+-spark frequency in β-escin permeabilized cardiomyocytes; type: cell-based, rabbit
Procedure: Adult ventricular rabbit cardiomyocytes were isolated from four different animals as previously described (Loughrey C. M. et al., 2004, J. Physiol. 556:919-934) and permeabilized using β-escin (0.1 mg/ml). The permeabilized cells were incubated for 1 minute with rhodamine-labeled human S100A1 protein (0.1 μM) or FITC-labeled S100A1 C-terminal 20-mer peptide (0.1 μM) fused to a hydrophilic linker (amino acids 75 to 94 of human S100A1 fused to D-K-D-D-P-P (SEQ ID NO: 354)). Cells were monitored using a Bio-Rad 2000 laser scanning confocal microscope (LSCM). A striated staining pattern can be observed that resembles the ryanodine staining pattern (FIG. 4).
Isolated cardiomyocytes were perfused with a mock intracellular solution and permeabilized using β-escin (0.1 mg/ml). Fluo-3 free acid (10 μM) present in the perfusing solution was excited at 488 nm (Kr-laser) and measured at >515 nm applying epifluorescence optics of an inverted microscope with a ×60-1.2 NA water-immersion objective lens. Fluorescence was acquired in line scan mode at 2 ms line^−1; pixel dimension was 0.3 μm (512 pixels scan^−1; zoom=1.4). […] Ca^2+-sparks recorded in Fluo-3-containing solutions were quantified using an automated detection and measurement algorithm. […]

[2] = tested on: C57/B6 male/female mice with postischemic contractile dysfunction; experiment: Experimental mouse heart failure model (postischemic contractile dysfunction): echocardiography and survival; type: in vivo; conditions: daily i.p. 225 ng (30 g BW) for 2 weeks
[3] = tested on: C57/B6 male/female mice with postischemic contractile dysfunction; experiment: Apoptosis (TUNEL) in failing myocardium of heart failure mice; type: in vivo, mouse; conditions: daily i.p. 225 ng (30 g BW) for 2 weeks
[4] = tested on: C57/B6 male/female mice with postischemic contractile dysfunction; experiment: βAR triggered (epinephrin/caffeine) lethal ventricular fibrillation in heart failure mice; type: in vivo, mouse; conditions: 2-week daily i.p. 225 ng
[5] = tested on: post-myocardial infarction heart failure mice; experiment: Skeletal muscle function in post-myocardial infarction heart failure mice after systemic treatment; type: in vivo, mouse; conditions: 2-week i.p. treatment, 225 ng daily injections

SMILES	RyR2 activity [1]	survival [2]	apoptosis in failing hearts (TUNEL) [3]	protection from βAR triggered ventricular fibrillations [4]	occurrence of lethal ventricular fibrillation ([4]; i.p. epinephrin/caffeine injection)	skeletal muscle function / contractile performance [5]
CC(C)C[C@H](NC(=O)[C@H](C)NC(=O)[C@H](C)NC(=O)[C@@H](NC(=O)[C@H](CC(C)C)NC(=O)[C@@H](NC(=O)[C@@H](NC(=O)[C@@H](N)Cc1ccc(O)cc1)C(C)C)C(C)C)C(C)C)C(=O)N[C@H](C(=O)N[C@H](C(=O)N[C@@H](C)C(=O)N[C@@H](CS)C(=O)N[C@@H](CC(N)=O)C(=O)N[C@@H](CC(N)=O)C(=O)N[C@@H](Cc1ccccc1)C(=O)N[C@@H](Cc1ccccc1)C(=O)N[C@@H](Cc1c[nH]c2ccccc12)C(=O)N[C@@H](CCC(=O)O)C(=O)N[C@@H](CC(N)=O)C(=O)N[C@@H](CO)C(=O)O)C(C)C)[C@@H](C)O [20-mer S100A1 C-terminal peptide, YVVLVAALTVACNNFFWENS, reference compound] (H-YVVLVAALTVACNNFFWENS-OH; N-terminus and C-terminus assumed)	decreases					
CC(C)C[C@H](NC(=O)[C@H](C)NC(=O)[C@H](C)NC(=O)[C@@H](NC(=O)[C@H](CC(C)C)NC(=O)[C@@H](NC(=O)[C@@H](NC(=O)[C@H](Cc1ccc(O)cc1)NC(=O)[C@@H]1CCCN1C(=O)[C@@H]1CCCN1C(=O)[C@H](CC(=O)O)NC(=O)[C@H](CC(=O)O)NC(=O)[C@H](CCCCN)NC(=O)[C@@H](N)CC(=O)O)C(C)C)C(C)C)C(C)C)C(=O)N[C@H](C(=O)N[C@H](C(=O)N[C@@H](C)C(=O)O)C(C)C)[C@@H](C)O [S100A1ct6/11, D-K-D-D-P-P-Y-V-V-L-V-A-A-L-T-V-A] (H-DKDDPPYVVLVAALTVA-OH; N-terminus and C-terminus assumed)		significantly improved survival	preventing apoptotic cell death in failing myocardium	protects the heart failure mice from βAR-triggered lethal ventricular tachyarrhythmias; also recorded: protects from βAR triggered ventricular fibrillations	2 out of 10	enhanced; also recorded: attenuates skeletal muscle dysfunction and significantly improves contractile performance
